The list shows a part of the results.
Legend:
Experiment in all cases: log2 fold change, soluble protein after heating vs DMSO (PISA); higher = thermal stabilisation; K562 cells, 10 uM, 30 min; active = over 0.2 and 3.5 SD of the protein, either way, in both replicates (recomputed)
[1] = compound: C1=CC=C(C=C1)[C@H](COC2=CC3=C(C=C2)NC(=O)N3)NC(=O)C4=CC=CN(C4=O)CC5=CC(=C(C=C5)F)F
How it was run: (§1)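 K562 cells at 2×10^6 cells/mL were treated with 10 μM compound for 30 min. Aliquots were heated for 3 min across 48°C-58°C, pooled, and extracted in PBS with 0.5% NP-40 at 4°C; soluble protein was the supernatant after 21,000xg for 90 min. Soluble protein was quantified by TMTpro 16plex LC-MS/MS with channel sums equalised, and reported as log2 fold change in thermal stability against DMSO controls, with values from duplicates.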

Protein sequences, listed by entry. Tags and fused reporters are not part of them. Lines headed by an entry give the natural chain unless they say otherwise; changes in a name come on top.
UniProt Q5T9A4: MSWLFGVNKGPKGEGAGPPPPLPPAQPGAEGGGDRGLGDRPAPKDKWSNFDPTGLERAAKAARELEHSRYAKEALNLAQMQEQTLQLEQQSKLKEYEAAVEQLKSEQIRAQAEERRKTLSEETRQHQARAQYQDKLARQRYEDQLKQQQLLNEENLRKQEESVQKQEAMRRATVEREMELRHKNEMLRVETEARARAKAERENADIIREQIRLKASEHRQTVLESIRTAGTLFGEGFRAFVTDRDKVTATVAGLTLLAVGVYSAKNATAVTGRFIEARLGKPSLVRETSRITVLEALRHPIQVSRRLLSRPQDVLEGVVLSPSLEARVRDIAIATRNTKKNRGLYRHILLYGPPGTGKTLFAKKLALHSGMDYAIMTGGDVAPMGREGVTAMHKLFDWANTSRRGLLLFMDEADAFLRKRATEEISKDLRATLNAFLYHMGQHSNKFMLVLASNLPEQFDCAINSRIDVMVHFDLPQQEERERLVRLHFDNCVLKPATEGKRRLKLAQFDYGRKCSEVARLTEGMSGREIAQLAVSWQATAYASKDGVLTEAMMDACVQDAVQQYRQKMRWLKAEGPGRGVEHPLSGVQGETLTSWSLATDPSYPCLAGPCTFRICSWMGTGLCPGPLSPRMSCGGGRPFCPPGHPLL
UniProt O95260: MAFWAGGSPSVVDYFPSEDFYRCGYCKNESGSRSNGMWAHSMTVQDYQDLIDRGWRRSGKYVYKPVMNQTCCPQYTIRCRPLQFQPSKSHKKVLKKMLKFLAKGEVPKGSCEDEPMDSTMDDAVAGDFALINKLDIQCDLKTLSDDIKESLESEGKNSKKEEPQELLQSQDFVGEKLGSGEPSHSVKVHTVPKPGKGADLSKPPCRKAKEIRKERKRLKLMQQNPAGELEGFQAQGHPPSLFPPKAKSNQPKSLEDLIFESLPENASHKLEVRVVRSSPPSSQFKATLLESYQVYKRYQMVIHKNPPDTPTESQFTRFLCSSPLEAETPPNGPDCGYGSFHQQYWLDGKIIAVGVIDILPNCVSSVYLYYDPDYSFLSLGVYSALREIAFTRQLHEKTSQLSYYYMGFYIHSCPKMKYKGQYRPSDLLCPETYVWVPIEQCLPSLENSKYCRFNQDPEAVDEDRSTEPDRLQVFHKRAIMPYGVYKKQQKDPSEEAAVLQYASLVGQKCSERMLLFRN
UniProt P54707, whole entry, looked up: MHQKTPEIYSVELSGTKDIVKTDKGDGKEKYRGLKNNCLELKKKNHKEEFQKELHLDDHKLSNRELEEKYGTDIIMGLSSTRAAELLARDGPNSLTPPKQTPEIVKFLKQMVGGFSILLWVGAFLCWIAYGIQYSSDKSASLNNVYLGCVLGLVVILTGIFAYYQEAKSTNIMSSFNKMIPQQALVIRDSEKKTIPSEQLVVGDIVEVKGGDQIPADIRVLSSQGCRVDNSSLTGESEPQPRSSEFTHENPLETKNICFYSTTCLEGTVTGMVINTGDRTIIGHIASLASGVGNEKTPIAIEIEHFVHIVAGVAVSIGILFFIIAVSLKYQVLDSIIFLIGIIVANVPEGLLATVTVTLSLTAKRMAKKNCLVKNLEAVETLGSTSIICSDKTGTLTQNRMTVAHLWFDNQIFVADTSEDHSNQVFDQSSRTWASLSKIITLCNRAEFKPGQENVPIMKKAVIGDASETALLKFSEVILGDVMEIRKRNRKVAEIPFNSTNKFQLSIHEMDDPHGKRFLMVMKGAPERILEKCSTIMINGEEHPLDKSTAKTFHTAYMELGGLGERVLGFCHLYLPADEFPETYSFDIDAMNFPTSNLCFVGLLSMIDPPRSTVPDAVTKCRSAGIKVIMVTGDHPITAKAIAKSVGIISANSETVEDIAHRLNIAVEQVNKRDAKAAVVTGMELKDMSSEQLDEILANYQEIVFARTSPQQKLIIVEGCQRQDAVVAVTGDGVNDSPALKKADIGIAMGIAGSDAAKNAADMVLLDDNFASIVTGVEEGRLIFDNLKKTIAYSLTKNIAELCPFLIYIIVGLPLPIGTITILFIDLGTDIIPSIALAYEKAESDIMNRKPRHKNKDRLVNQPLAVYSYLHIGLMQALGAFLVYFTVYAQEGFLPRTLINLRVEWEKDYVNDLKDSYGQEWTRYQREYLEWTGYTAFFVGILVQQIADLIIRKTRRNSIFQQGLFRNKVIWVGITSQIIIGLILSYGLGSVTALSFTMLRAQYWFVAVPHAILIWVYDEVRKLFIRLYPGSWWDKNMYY
UniProt P40616: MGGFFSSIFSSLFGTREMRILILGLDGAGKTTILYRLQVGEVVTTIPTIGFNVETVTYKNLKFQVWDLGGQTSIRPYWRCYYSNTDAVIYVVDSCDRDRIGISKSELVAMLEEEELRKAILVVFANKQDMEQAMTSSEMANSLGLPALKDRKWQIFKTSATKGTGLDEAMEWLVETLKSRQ
UniProt Q9NQ11: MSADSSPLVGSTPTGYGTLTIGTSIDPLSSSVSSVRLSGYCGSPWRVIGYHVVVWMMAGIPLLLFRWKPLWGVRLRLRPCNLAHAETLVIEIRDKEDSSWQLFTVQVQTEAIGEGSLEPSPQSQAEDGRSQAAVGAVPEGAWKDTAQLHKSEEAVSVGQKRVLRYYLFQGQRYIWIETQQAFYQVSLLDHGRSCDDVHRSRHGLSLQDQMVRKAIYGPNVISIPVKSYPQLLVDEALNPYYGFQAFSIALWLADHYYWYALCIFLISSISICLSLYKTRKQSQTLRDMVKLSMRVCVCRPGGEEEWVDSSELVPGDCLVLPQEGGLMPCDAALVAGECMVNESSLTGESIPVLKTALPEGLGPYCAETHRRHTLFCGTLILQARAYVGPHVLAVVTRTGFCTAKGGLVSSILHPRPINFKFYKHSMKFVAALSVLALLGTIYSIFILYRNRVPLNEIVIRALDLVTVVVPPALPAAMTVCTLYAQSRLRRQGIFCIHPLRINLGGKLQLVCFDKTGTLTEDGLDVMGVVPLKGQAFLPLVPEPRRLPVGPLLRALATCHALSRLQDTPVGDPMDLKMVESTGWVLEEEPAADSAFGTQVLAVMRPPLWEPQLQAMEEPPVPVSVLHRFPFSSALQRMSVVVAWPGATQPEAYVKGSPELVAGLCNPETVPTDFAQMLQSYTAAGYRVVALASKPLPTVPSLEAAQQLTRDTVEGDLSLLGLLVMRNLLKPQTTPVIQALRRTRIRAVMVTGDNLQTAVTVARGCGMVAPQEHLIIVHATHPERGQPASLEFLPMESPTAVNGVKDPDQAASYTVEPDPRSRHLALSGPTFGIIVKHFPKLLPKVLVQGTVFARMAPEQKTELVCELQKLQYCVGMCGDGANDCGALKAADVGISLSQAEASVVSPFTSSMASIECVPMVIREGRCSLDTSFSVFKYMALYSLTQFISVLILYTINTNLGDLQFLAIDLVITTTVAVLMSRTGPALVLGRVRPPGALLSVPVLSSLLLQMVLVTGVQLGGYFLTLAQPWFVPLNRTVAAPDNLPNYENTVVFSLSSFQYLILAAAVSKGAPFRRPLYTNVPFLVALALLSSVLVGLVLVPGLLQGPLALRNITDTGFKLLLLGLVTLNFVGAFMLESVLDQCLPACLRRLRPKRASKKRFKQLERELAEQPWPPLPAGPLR
UniProt Q9HD20: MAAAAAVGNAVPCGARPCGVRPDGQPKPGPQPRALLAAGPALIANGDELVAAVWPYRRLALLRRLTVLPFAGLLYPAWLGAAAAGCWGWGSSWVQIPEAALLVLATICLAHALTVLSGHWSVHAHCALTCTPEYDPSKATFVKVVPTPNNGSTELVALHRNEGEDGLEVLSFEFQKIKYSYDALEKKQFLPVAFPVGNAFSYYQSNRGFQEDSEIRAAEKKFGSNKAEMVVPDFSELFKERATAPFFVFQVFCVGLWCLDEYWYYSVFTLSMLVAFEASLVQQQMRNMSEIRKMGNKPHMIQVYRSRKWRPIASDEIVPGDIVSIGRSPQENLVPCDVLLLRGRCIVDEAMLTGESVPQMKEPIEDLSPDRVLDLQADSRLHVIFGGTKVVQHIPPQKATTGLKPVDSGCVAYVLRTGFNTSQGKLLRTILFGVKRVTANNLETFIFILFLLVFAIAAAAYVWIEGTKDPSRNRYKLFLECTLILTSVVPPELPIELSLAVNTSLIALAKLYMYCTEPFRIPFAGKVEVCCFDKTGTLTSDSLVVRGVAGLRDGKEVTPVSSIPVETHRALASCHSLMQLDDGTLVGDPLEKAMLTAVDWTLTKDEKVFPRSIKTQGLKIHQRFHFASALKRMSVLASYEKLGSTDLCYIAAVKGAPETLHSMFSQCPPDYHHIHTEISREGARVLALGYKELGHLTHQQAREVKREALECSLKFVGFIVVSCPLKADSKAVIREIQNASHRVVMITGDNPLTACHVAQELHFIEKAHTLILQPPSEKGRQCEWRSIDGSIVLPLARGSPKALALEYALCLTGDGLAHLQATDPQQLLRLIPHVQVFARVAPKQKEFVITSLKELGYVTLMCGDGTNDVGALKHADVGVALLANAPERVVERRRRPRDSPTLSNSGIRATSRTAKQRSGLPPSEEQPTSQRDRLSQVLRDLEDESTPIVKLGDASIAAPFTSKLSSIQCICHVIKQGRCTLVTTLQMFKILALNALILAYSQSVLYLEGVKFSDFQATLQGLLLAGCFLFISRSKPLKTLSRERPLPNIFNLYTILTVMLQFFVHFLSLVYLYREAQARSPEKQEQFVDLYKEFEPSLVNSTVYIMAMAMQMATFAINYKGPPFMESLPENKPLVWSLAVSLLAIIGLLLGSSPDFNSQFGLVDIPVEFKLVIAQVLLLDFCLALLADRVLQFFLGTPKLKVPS
UniProt P21281, whole entry, looked up: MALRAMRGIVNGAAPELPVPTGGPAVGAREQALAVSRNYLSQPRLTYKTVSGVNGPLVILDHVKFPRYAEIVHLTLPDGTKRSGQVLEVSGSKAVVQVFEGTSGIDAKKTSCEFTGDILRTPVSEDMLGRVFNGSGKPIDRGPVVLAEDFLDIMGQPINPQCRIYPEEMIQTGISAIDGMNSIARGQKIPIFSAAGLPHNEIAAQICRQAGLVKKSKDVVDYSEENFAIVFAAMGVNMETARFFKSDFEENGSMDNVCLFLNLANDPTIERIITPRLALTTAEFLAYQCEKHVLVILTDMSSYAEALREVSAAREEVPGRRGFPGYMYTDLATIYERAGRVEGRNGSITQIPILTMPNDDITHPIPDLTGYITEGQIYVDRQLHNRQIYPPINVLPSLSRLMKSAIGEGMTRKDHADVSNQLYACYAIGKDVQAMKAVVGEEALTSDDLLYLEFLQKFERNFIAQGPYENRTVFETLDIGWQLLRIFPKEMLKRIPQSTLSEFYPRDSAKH
UniProt Q9UH62: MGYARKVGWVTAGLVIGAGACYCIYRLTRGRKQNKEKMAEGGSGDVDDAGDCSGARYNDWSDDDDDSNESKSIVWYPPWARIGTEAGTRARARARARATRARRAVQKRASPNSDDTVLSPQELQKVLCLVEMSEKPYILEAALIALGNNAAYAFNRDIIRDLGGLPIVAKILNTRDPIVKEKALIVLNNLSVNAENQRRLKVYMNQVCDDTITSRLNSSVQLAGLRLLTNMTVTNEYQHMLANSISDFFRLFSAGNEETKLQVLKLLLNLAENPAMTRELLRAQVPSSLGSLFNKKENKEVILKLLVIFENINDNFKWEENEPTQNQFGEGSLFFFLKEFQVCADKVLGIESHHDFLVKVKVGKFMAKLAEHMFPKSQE
UniProt P36543, whole entry, looked up: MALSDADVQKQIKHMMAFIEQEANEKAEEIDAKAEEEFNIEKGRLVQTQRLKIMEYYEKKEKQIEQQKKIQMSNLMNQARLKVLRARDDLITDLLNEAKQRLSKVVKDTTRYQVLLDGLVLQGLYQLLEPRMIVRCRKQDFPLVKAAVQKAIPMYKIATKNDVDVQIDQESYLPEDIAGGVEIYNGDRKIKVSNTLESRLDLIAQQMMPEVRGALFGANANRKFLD
UniProt P18859: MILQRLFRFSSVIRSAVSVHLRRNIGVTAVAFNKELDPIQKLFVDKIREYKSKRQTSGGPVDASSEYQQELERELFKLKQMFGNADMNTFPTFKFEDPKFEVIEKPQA
UniProt P56385: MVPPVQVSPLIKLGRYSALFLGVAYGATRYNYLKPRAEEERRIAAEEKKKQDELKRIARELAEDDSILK
UniProt P06576, whole entry, looked up: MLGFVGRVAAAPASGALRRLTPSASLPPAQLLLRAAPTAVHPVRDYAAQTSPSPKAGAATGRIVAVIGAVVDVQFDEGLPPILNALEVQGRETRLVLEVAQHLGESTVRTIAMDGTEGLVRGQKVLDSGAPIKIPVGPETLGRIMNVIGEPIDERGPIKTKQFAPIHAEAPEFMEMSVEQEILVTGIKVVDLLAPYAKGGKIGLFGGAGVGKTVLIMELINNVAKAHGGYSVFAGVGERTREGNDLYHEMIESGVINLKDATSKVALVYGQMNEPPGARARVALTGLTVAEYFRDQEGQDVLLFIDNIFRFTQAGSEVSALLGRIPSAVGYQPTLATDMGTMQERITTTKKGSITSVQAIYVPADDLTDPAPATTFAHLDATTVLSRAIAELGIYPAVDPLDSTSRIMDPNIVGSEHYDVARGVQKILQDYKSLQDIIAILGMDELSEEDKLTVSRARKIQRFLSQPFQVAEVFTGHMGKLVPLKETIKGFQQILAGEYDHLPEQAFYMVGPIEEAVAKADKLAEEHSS

[2] = compound: CC1=C(SC2=C1C(=N[C@H](C3=NN=C(N32)C)CC(=O)N)C4=CC=C(C=C4)Cl)C
How it was run: as §1

[3] = compound: CC1=C2C(=CC=C1)N=C(N(C2=O)C3=CC=CC=C3C)CN4C=NC5=C(N=CN=C54)N
How it was run: as §1

[4] = compound: Cc1sc2c(c1C)C(c1ccc(Cl)cc1)=N[C@@H](CC(=O)OC(C)(C)C)c1nnc(C)n1-2
How it was run: as §1

[5] = compound: c1ccc([C@@H]2C[C@H]2NC2CCNCC2)cc1
How it was run: as §1

Measured: log2 fold change

ATAD3B (UniProt Q5T9A4)
inactive: [1] -0.02 | [2] -0.023 | [3] -0.055 | [4] 0.123 | [5] 0.025

ATE1 isoform 2 (UniProt O95260)
inactive: [1] 0.026 | [2] 0.111 | [3] 0.01 | [4] 0.044 | [5] -0.064

ATP12A isoform 2 (UniProt P54707)
inactive: [1] -0.027 | [2] 0.062 | [3] 0.052 | [4] -0.044 | [5] -0.043

ARL1 (UniProt P40616)
inactive: [1] -0.084 | [2] 0.057 | [3] 0.079 | [4] -0.1 | [5] -0.048

ATAD3A isoform 2 (UniProt Q9NVI7)
inactive: [1] -0.019 | [2] -0.037 | [3] -0.052 | [4] 0.08 | [5] 0.054

ASF1A (UniProt Q9Y294)
inactive: [1] -0.012 | [2] 0.001 | [3] 0.069 | [4] -0.011 | [5] 0.04

ARMC6 (UniProt Q6NXE6)
inactive: [1] -0.044 | [2] -0.125 | [3] -0.039 | [4] 0.203 | [5] -0.026

Quoted at random: 2 entries already listed
ARMC6 (UniProt Q6NXE6)
inactive: [1] -0.044 | [2] -0.125 | [3] -0.039 | [4] 0.203 | [5] -0.026

ATP12A isoform 2 (UniProt P54707)
inactive: [1] -0.027 | [2] 0.062 | [3] 0.052 | [4] -0.044 | [5] -0.043

(next part)

ATP6V1C1 (UniProt P21283)
inactive: [1] -0.011 | [2] 0.004 | [3] 0.05 | [4] -0.002 | [5] -0.039

ARPC3 (UniProt O15145)
inactive: [1] 0.054 | [2] 0.016 | [3] -0.001 | [4] -0.005 | [5] 0.005

ATP2B4 (UniProt P23634)
inactive: [1] 0.041 | [2] 0.066 | [3] 0.043 | [4] -0.01 | [5] 0.052

ATG16L1 (UniProt Q676U5)
inactive: [1] -0.018 | [2] 0.047 | [3] 0.023 | [4] -0.011 | [5] -0.013

ARRB1 (UniProt P49407)
inactive: [1] 0.008 | [2] 0.034 | [3] 0.003 | [4] -0.047 | [5] -0.036

ATP13A2 (UniProt Q9NQ11)
inactive: [1] 0.031 | [2] -0.075 | [3] 0.007 | [4] -0.062 | [5] 0.092

ATP2A3 isoform 2 (UniProt Q93084)
inactive: [1] -0.01 | [2] 0.035 | [3] 0.036 | [4] -0.002 | [5] 0.01

ATP13A1 (UniProt Q9HD20)
inactive: [1] -0.023 | [2] 0.056 | [3] 0.036 | [4] -0.058 | [5] 0.033

ATP5MF (UniProt P56134)
inactive: [1] 0.01 | [2] -0.028 | [3] 0.056 | [4] 0.01 | [5] 0.022

ATP6V1B2 (UniProt P21281)
inactive: [1] 0.026 | [2] -0.037 | [3] -0.014 | [4] 0 | [5] 0.009

ARMCX3 (UniProt Q9UH62)
inactive: [1] -0.16 | [2] -0.061 | [3] 0.305 | [4] -0.115 | [5] 0.041

ATP6V1E1 (UniProt P36543)
inactive: [1] 0.001 | [2] 0.041 | [3] 0.031 | [4] -0.004 | [5] -0.086

ARMC1 (UniProt Q9NVT9)
inactive: [1] -0.065 | [2] 0.029 | [3] 0.012 | [4] -0.01 | [5] 0.001

ATP5PF isoform 2 (UniProt P18859)
inactive: [1] 0.033 | [2] 0.08 | [3] -0.001 | [4] 0.141 | [5] -0.055

ATP7B (UniProt P35670)
inactive: [1] 0 | [2] 0.094 | [3] 0.014 | [4] 0.022 | [5] 0.076

ATP5ME (UniProt P56385)
inactive: [1] 0.028 | [2] 0.117 | [3] 0.007 | [4] -0.072 | [5] 0.014

ATP5F1B (UniProt P06576)
inactive: [1] 0.012 | [2] 0.025 | [3] 0.022 | [4] -0.002 | [5] 0.011

— the supplement of paper PMC10849652
